Results are given in words; binding and its absence hold for the method and conditions named. Some entries that bind do so weakly or less than the wild type.
Molecular target: HER3 protein (free, coated on the ELISA plate) (UniProt P21860)
Test: ELISA, HER3 protein coated on the plate

Protein sequences, listed by entry. Tags and fused reporters are not part of them. Residues count along the entry.
UniProt P21860, residues 20-643: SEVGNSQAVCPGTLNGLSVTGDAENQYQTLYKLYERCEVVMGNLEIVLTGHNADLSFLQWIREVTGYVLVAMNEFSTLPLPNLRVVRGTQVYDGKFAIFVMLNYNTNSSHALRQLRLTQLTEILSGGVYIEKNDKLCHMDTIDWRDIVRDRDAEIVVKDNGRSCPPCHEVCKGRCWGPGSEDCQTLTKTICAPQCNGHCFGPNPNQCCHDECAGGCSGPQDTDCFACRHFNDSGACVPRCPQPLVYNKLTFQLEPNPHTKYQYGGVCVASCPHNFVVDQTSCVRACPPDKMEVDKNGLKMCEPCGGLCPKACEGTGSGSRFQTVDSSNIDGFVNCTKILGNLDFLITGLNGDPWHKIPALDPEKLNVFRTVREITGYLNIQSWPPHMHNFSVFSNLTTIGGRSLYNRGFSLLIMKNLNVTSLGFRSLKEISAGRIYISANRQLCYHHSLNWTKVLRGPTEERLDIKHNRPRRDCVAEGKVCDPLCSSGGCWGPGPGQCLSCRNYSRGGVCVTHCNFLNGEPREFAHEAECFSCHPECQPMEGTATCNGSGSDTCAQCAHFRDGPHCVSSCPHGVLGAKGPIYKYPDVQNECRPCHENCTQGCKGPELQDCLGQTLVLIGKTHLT

binding: binds
B1: fully human antibody molecule HER3-29 (antibody, human IgG1, kappa, V domains shown)
VH: QVQLVQSGGGLVQPGRSLRLSCAASGFTFDDYAMHWVRQAPGKGLEWVSGISWNSGSIGYADSVKGRFTISRDNAKNSLYLQMNSLRAEDTALYYCAKEGLPGLDYWGQGTLVTVSS
VL: DIQMTQSPSSLSASIGDRATITCRASQHVGTYLNWYQQKPGKTPKLLISGAANLQSGVPSRFSGSGSGTDFTLTISSLQPEDFATYYCQQSYNTPPFSFGQGTKVEIKR

Reference: patent US20240026028A1
